Measurements as given in paper doi:10.1101/736439.
No constants are given. Whether binding was seen depends on the method and setting. Some results given as binding are weak or reduced against the parent protein; the word gives no strength.

Key:
Assay in all cases: ITC
[1] = target: T1, Ectodomain of ER (E25-R580) (Arabidopsis thaliana) (UniProt Q42371)
T1 sequence: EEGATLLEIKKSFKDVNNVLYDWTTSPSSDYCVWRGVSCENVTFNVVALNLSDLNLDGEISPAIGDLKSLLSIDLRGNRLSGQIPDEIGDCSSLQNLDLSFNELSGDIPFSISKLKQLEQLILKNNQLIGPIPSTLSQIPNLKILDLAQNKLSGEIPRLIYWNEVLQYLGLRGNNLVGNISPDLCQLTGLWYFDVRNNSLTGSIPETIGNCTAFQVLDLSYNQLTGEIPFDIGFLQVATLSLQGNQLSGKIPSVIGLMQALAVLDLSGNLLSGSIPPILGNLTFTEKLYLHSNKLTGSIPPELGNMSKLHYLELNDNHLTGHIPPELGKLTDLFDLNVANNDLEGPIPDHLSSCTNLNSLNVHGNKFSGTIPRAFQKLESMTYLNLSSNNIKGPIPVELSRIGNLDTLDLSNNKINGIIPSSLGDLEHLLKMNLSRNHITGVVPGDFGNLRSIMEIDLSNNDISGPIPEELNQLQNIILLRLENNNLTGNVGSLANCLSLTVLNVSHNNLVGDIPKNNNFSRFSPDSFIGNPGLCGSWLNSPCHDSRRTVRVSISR

[2] = target: T2, Ectodomain of ERL2 (M28-R585) (Arabidopsis thaliana) (UniProt Q6XAT2)
T2 sequence: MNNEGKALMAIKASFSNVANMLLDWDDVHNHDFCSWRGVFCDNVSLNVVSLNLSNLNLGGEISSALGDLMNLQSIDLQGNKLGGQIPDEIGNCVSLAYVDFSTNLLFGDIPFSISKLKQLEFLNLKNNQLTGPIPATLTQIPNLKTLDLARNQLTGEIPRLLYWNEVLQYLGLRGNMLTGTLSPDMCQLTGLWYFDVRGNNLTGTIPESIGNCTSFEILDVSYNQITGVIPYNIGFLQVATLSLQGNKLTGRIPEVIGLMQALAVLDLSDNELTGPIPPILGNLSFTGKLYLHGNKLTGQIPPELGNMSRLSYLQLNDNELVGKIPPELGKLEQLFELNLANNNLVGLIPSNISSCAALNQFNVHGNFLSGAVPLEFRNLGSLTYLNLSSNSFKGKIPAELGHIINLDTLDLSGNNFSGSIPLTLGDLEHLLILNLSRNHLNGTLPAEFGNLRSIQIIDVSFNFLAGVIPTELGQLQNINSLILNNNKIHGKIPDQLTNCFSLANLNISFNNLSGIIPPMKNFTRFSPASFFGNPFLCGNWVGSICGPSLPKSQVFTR

[3] = target: T3, Ectodomain of ERL1 (M26-R582) (Arabidopsis thaliana) (UniProt C0LGW6)
T3 sequence: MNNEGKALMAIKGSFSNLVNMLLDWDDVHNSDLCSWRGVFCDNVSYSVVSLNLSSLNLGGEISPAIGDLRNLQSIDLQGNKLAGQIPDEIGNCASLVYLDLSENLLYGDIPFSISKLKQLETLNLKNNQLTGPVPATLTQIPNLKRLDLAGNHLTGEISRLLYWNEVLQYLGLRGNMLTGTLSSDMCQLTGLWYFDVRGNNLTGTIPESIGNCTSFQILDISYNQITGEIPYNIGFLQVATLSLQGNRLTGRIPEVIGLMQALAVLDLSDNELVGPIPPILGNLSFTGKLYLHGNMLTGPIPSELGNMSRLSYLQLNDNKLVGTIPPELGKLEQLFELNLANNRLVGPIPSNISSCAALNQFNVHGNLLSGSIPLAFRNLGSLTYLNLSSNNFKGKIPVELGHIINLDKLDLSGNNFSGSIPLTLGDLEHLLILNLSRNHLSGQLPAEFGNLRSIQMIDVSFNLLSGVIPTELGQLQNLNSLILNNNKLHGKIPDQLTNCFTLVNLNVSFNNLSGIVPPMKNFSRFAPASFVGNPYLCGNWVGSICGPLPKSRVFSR

binding [1]: binds | binding [2]: binds | binding [3]: binds
B1: Mature EPFL2 (MEPFL2) (peptide, UniProt Q9T068 53-128)
chain: GHIGSRPPRCERVRCRSCGHCEAIQVPTNPQTKLHSPLTTSSSSSSETIHLDYTRGDDSTNYKPMSWKCKCGNSIYNP
